Measurements reported in PubChem BioAssay AID1224830 (NIAID, 2016)
The whole screen tested about 18,000 reagents; this is a part drawn at random. Over the whole deposit, about 2,900 (16%) got an active call. 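Calls are made per well; low scores hint the gene aids the LPS response, high scores that it dampens it.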 Repeated entries: four replicate wells of each siRNA pool. No sequences are given here.

Screen: 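Regulators of TLR4 signalling towards TNF-alpha in macrophage-like cells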 (primary screen)
Cell system: human THP-1 monocytic leukaemia cells, TNF dual-luciferase reporter clone, PMA-differentiated to macrophage-like cells
Reagents: siRNA pool against human genes, 50 nM
Duration: LPS for 4 h, given about 3 days after siRNA transfection
Treatment: bacterial LPS (TLR4 ligand), 10 ng/ml
Read-out: 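Ratio of firefly to renilla light, scaled to the plate median and expressed as a robust z-score per replicate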
Reading the numbers: TNF reporter robust z-score: higher = stronger TNF reporter response to LPS
Call rule: 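a well is active when its z-score exceeds 2.8 or falls below -1.5; control wells carry no call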

no.	gene knocked down	TNF reporter robust z-score	activity call
1	NUDT9 (nudix hydrolase 9)	-0.05	inactive
2	NUDT9 (nudix hydrolase 9)	1.88	inactive
3	NUDT9 (nudix hydrolase 9)	1.72	inactive
4	NUDT9 (nudix hydrolase 9)	1.07	inactive
5	PABPC3 (poly(A) binding protein cytoplasmic 3)	0.02	inactive
6	PABPC3 (poly(A) binding protein cytoplasmic 3)	0.05	inactive
7	PABPC3 (poly(A) binding protein cytoplasmic 3)	-0.35	inactive
8	PABPC3 (poly(A) binding protein cytoplasmic 3)	-0.47	inactive
9	HNRNPC (heterogeneous nuclear ribonucleoprotein C)	-1.67	active
10	HNRNPC (heterogeneous nuclear ribonucleoprotein C)	-1.93	active
11	HNRNPC (heterogeneous nuclear ribonucleoprotein C)	-1.99	active
12	HNRNPC (heterogeneous nuclear ribonucleoprotein C)	-1.92	active
13	RET (ret proto-oncogene)	-0.16	inactive
14	RET (ret proto-oncogene)	0.79	inactive
15	RET (ret proto-oncogene)	-1.33	inactive
16	RET (ret proto-oncogene)	-1.21	inactive
17	GPR61 (G protein-coupled receptor 61)	-0.36	inactive
18	GPR61 (G protein-coupled receptor 61)	1.91	inactive
19	GPR61 (G protein-coupled receptor 61)	-0.21	inactive
20	GPR61 (G protein-coupled receptor 61)	0.33	inactive
21	SEM1 (SEM1 26S proteasome subunit)	-0.3	inactive
22	SEM1 (SEM1 26S proteasome subunit)	1.51	inactive
23	SEM1 (SEM1 26S proteasome subunit)	0.24	inactive
24	SEM1 (SEM1 26S proteasome subunit)	0.4	inactive
25	MED21 (mediator complex subunit 21)	-1.77	active
26	MED21 (mediator complex subunit 21)	-1.57	active
27	MED21 (mediator complex subunit 21)	-1.87	active
28	MED21 (mediator complex subunit 21)	-1.66	active
29	EDIL3 (EGF like and discoidin domains 3)	0.41	inactive
30	EDIL3 (EGF like and discoidin domains 3)	4.43	active
31	EDIL3 (EGF like and discoidin domains 3)	1.28	inactive
32	EDIL3 (EGF like and discoidin domains 3)	2.87	active
33	POLG (DNA polymerase gamma, catalytic subunit)	-0.49	inactive
34	POLG (DNA polymerase gamma, catalytic subunit)	-0.33	inactive
35	POLG (DNA polymerase gamma, catalytic subunit)	0.18	inactive
36	POLG (DNA polymerase gamma, catalytic subunit)	-0.31	inactive
37	GCSH (glycine cleavage system protein H)	-0.3	inactive
38	GCSH (glycine cleavage system protein H)	-0.07	inactive
39	GCSH (glycine cleavage system protein H)	-0.35	inactive
40	GCSH (glycine cleavage system protein H)	-0.09	inactive
41	REM2 (RRAD and GEM like GTPase 2)	0.56	inactive
42	REM2 (RRAD and GEM like GTPase 2)	-0.03	inactive
43	REM2 (RRAD and GEM like GTPase 2)	0.47	inactive
44	REM2 (RRAD and GEM like GTPase 2)	0.71	inactive
45	NPHS2 (NPHS2 stomatin family member, podocin)	-0.16	inactive
46	NPHS2 (NPHS2 stomatin family member, podocin)	1.87	inactive
47	NPHS2 (NPHS2 stomatin family member, podocin)	1.6	inactive
48	NPHS2 (NPHS2 stomatin family member, podocin)	1.75	inactive
49	RANBP6 (RAN binding protein 6)	-0.81	inactive
50	RANBP6 (RAN binding protein 6)	-0.39	inactive
51	RANBP6 (RAN binding protein 6)	-0.43	inactive
52	RANBP6 (RAN binding protein 6)	-0.32	inactive
53	PRR4 (proline rich 4)	-0.02	inactive
54	PRR4 (proline rich 4)	1.24	inactive
55	PRR4 (proline rich 4)	0.77	inactive
56	PRR4 (proline rich 4)	0.41	inactive
57	TOMM34 (translocase of outer mitochondrial membrane 34)	-0.58	inactive
58	TOMM34 (translocase of outer mitochondrial membrane 34)	-1.37	inactive
59	TOMM34 (translocase of outer mitochondrial membrane 34)	-0.81	inactive
60	TOMM34 (translocase of outer mitochondrial membrane 34)	-0.62	inactive
61	ATP1B4 (ATPase Na+/K+ transporting family member beta 4)	-0.87	inactive
62	ATP1B4 (ATPase Na+/K+ transporting family member beta 4)	-1.25	inactive
63	ATP1B4 (ATPase Na+/K+ transporting family member beta 4)	-1.63	active
64	ATP1B4 (ATPase Na+/K+ transporting family member beta 4)	-0.95	inactive
65	NDC80 (NDC80 kinetochore complex component)	-0.25	inactive
66	NDC80 (NDC80 kinetochore complex component)	1.29	inactive
67	NDC80 (NDC80 kinetochore complex component)	-0.02	inactive
68	NDC80 (NDC80 kinetochore complex component)	0.92	inactive

Reagents listed above marked active (11):
gene knocked down	TNF reporter robust z-score	activity call
HNRNPC (heterogeneous nuclear ribonucleoprotein C)	-1.67	active
HNRNPC (heterogeneous nuclear ribonucleoprotein C)	-1.93	active
HNRNPC (heterogeneous nuclear ribonucleoprotein C)	-1.99	active
HNRNPC (heterogeneous nuclear ribonucleoprotein C)	-1.92	active
MED21 (mediator complex subunit 21)	-1.77	active
MED21 (mediator complex subunit 21)	-1.57	active
MED21 (mediator complex subunit 21)	-1.87	active
MED21 (mediator complex subunit 21)	-1.66	active
EDIL3 (EGF like and discoidin domains 3)	4.43	active
EDIL3 (EGF like and discoidin domains 3)	2.87	active
ATP1B4 (ATPase Na+/K+ transporting family member beta 4)	-1.63	active

The results go on.
no.	gene knocked down	TNF reporter robust z-score	activity call
69	HNRNPA3 (heterogeneous nuclear ribonucleoprotein A3)	1.23	inactive
70	HNRNPA3 (heterogeneous nuclear ribonucleoprotein A3)	1.62	inactive
71	HNRNPA3 (heterogeneous nuclear ribonucleoprotein A3)	0.82	inactive
72	HNRNPA3 (heterogeneous nuclear ribonucleoprotein A3)	1.29	inactive
73	PRRX1 (paired related homeobox 1)	-0.66	inactive
74	PRRX1 (paired related homeobox 1)	-0.22	inactive
75	PRRX1 (paired related homeobox 1)	-1.01	inactive
76	PRRX1 (paired related homeobox 1)	-0.49	inactive
77	SPDYA (speedy/RINGO cell cycle regulator family member A)	-0.18	inactive
78	SPDYA (speedy/RINGO cell cycle regulator family member A)	0.06	inactive
79	SPDYA (speedy/RINGO cell cycle regulator family member A)	0.19	inactive
80	SPDYA (speedy/RINGO cell cycle regulator family member A)	0.49	inactive
81	FAIM2 (Fas apoptotic inhibitory molecule 2)	0.06	inactive
82	FAIM2 (Fas apoptotic inhibitory molecule 2)	1.05	inactive
83	FAIM2 (Fas apoptotic inhibitory molecule 2)	-0.8	inactive
84	FAIM2 (Fas apoptotic inhibitory molecule 2)	0.07	inactive
85	SOWAHC (sosondowah ankyrin repeat domain family member C)	0.22	inactive
86	SOWAHC (sosondowah ankyrin repeat domain family member C)	0.41	inactive
87	SOWAHC (sosondowah ankyrin repeat domain family member C)	-0.23	inactive
88	SOWAHC (sosondowah ankyrin repeat domain family member C)	0.02	inactive
89	FBXW9 (F-box and WD repeat domain containing 9)	-0.89	inactive
90	FBXW9 (F-box and WD repeat domain containing 9)	5.18	active
91	FBXW9 (F-box and WD repeat domain containing 9)	-0.2	inactive
92	FBXW9 (F-box and WD repeat domain containing 9)	2.13	inactive
93	ZBTB47 (zinc finger and BTB domain containing 47)	1.17	inactive
94	ZBTB47 (zinc finger and BTB domain containing 47)	2.09	inactive
95	ZBTB47 (zinc finger and BTB domain containing 47)	0.72	inactive
96	ZBTB47 (zinc finger and BTB domain containing 47)	1.12	inactive
97	ZNF287 (zinc finger protein 287)	-0.39	inactive
98	ZNF287 (zinc finger protein 287)	-0.17	inactive
99	ZNF287 (zinc finger protein 287)	-0.51	inactive
100	ZNF287 (zinc finger protein 287)	-0.54	inactive
101	TTC32 (tetratricopeptide repeat domain 32)	-0.86	inactive
102	TTC32 (tetratricopeptide repeat domain 32)	0.27	inactive
103	TTC32 (tetratricopeptide repeat domain 32)	-0.68	inactive
104	TTC32 (tetratricopeptide repeat domain 32)	0.83	inactive
105	CIMAP1A (ciliary microtubule associated protein 1A)	1.02	inactive
106	CIMAP1A (ciliary microtubule associated protein 1A)	2.2	inactive
107	CIMAP1A (ciliary microtubule associated protein 1A)	2.27	inactive
108	CIMAP1A (ciliary microtubule associated protein 1A)	3.52	active
109	RARS2 (arginyl-tRNA synthetase 2, mitochondrial)	-1.85	active
110	RARS2 (arginyl-tRNA synthetase 2, mitochondrial)	-1.09	inactive
111	RARS2 (arginyl-tRNA synthetase 2, mitochondrial)	-1.06	inactive
112	RARS2 (arginyl-tRNA synthetase 2, mitochondrial)	-0.45	inactive
